Test results published in the supplement of paper PMC10849652.
This is one part of the list.

Sequences of proteins named here, by UniProt entry; tags and fusion partners are left off. A change or cut given only in a name is not applied to a line headed by its entry.
UniProt Q13427: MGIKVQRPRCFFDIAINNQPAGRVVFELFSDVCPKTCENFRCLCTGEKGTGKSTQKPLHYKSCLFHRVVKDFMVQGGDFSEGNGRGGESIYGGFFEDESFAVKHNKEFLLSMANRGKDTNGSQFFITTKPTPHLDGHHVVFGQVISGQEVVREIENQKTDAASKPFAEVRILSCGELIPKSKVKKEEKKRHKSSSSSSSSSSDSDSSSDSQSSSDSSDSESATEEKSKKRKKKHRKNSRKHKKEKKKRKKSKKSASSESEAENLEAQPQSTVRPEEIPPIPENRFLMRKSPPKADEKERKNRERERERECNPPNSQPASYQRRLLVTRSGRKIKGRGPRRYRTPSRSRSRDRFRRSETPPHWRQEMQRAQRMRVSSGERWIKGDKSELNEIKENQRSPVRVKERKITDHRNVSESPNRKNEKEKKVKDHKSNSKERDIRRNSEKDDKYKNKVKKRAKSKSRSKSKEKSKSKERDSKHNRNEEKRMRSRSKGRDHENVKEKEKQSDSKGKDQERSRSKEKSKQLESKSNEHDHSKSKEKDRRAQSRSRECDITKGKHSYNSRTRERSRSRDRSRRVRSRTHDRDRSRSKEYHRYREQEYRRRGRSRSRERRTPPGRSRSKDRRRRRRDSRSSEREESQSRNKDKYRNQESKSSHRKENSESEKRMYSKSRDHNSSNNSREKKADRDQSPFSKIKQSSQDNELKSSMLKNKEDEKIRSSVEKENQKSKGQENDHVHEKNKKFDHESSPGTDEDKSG
UniProt Q6PFW1: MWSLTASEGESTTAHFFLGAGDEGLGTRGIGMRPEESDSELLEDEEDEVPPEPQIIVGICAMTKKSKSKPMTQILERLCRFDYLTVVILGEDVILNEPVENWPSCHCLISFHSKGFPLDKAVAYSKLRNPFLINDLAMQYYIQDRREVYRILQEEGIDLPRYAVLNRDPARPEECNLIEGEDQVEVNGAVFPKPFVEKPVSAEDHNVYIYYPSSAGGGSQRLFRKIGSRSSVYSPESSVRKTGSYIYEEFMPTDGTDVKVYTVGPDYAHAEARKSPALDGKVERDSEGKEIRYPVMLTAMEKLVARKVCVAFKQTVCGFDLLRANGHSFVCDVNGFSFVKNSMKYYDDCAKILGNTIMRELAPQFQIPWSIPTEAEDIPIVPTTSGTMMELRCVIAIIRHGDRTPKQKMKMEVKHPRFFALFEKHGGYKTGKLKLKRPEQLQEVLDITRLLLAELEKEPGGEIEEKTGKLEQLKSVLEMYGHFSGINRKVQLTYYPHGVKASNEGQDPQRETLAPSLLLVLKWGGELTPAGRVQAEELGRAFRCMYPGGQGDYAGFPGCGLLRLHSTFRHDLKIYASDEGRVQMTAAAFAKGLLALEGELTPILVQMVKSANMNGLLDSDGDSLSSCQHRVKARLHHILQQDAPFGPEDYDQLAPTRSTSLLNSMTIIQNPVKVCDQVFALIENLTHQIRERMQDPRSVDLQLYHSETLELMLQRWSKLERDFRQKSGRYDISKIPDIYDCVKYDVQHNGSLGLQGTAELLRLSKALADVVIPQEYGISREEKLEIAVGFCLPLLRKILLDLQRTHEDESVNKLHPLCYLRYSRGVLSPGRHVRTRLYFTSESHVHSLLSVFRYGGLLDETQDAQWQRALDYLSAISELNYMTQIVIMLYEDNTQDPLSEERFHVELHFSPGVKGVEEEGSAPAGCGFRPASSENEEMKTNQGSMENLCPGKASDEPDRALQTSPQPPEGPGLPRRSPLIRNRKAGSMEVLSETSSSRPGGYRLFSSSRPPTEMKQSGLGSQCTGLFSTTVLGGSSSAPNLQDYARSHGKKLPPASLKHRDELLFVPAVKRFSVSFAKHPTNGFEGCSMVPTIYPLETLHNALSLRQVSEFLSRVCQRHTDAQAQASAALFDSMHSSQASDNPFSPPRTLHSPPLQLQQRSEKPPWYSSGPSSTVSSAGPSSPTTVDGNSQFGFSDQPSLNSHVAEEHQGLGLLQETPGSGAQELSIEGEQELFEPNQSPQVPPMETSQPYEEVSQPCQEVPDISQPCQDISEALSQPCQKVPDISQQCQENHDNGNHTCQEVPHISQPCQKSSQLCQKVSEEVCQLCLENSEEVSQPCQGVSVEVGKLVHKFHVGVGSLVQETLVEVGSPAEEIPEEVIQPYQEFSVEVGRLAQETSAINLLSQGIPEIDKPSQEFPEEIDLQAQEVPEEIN
UniProt Q86WR7: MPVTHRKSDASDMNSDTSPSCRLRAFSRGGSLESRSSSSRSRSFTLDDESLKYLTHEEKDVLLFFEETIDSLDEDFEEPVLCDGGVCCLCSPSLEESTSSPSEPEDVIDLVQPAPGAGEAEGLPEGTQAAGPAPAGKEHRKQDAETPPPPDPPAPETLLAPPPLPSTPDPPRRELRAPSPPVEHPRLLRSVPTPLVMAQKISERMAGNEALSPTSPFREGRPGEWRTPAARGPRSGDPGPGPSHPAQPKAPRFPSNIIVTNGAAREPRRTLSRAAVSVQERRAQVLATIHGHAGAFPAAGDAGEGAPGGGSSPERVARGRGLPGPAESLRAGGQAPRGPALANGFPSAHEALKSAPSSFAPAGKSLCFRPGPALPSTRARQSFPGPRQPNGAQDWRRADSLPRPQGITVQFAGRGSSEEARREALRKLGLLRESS
UniProt Q8WUA2: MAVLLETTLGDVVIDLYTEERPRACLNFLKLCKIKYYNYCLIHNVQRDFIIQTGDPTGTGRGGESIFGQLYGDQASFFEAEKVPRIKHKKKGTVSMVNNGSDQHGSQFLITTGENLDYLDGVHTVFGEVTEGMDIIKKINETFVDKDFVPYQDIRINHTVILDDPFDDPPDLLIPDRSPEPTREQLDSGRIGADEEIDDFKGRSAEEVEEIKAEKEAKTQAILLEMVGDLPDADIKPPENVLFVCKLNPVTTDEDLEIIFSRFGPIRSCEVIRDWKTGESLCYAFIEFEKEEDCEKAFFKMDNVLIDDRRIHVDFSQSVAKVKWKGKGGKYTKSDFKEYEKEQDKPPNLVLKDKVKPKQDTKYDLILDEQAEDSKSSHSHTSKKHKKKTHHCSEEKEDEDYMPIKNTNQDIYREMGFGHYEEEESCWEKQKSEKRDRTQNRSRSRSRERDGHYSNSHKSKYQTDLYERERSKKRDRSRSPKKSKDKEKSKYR
UniProt P13861, whole entry, looked up: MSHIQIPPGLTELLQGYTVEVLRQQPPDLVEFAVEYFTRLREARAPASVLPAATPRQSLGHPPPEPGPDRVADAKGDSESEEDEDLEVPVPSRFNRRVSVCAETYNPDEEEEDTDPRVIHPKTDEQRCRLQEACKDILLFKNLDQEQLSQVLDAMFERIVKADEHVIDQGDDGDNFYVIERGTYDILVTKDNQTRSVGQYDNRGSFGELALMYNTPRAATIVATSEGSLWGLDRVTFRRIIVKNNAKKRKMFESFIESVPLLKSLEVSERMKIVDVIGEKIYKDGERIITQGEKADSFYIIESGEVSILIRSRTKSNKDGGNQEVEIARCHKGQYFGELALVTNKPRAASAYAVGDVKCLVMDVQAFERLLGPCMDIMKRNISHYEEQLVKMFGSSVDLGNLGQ
UniProt P49643: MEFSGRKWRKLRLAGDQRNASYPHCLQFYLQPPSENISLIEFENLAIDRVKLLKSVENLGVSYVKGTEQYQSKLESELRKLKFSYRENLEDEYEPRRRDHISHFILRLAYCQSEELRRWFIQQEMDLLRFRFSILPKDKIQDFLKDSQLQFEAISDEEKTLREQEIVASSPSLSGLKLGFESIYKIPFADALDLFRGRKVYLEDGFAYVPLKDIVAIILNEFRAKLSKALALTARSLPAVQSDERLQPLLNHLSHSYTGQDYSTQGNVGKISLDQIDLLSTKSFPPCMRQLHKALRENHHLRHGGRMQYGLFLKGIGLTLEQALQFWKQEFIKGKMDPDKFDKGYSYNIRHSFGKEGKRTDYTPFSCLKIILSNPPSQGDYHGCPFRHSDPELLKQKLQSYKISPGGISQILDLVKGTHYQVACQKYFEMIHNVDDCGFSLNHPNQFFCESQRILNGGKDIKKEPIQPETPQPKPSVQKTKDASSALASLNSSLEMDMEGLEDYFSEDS
UniProt Q9UNN8: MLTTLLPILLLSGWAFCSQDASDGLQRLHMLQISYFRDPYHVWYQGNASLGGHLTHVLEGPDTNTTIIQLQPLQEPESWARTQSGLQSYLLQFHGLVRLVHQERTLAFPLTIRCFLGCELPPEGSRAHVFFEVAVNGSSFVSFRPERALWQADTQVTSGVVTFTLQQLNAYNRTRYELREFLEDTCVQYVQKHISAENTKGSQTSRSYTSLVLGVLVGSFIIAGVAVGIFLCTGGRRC
UniProt P35813: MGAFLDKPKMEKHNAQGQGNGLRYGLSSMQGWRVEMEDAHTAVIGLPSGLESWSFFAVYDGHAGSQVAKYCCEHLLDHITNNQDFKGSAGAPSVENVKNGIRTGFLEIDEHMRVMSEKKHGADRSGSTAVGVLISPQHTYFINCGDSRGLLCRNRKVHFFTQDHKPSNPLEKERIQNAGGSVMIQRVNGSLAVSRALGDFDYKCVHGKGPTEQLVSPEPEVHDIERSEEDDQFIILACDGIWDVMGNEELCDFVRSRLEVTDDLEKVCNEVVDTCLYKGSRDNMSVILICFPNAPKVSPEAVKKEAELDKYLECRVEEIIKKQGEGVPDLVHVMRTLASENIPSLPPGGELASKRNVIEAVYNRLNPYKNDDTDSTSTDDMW
UniProt P49593: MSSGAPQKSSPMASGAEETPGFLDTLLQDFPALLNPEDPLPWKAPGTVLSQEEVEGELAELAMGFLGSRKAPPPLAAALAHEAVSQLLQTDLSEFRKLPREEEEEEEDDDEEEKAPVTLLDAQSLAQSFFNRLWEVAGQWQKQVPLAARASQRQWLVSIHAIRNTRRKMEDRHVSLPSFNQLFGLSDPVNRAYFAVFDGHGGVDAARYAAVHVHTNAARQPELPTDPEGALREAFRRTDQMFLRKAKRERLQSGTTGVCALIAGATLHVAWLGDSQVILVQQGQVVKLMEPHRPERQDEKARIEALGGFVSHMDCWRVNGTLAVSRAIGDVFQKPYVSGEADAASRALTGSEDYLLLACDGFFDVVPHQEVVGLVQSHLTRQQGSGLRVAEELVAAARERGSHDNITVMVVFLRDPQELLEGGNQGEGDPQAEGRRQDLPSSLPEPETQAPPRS
UniProt Q5H9R7: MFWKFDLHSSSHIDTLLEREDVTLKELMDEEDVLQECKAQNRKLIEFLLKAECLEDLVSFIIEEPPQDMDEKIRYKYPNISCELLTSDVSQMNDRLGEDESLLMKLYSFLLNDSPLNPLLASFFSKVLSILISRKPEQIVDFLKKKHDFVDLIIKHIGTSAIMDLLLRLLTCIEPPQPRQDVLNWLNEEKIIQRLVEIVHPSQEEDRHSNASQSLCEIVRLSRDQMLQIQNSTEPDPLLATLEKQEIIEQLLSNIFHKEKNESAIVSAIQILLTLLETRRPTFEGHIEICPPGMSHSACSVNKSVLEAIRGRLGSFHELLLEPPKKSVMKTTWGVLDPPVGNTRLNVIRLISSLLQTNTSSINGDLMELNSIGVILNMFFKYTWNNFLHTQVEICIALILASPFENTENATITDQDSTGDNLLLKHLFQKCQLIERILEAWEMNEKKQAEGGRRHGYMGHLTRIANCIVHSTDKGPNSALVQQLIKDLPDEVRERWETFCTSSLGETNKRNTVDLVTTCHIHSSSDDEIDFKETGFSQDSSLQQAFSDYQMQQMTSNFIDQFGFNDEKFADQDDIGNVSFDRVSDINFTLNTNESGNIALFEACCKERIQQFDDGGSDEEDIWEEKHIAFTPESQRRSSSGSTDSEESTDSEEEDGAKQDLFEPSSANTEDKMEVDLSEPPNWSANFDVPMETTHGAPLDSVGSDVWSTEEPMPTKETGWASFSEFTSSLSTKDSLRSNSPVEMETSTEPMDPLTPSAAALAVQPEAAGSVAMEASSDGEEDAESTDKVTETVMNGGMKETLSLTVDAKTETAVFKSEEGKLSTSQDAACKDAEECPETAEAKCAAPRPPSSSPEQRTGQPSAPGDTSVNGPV
UniProt P30044: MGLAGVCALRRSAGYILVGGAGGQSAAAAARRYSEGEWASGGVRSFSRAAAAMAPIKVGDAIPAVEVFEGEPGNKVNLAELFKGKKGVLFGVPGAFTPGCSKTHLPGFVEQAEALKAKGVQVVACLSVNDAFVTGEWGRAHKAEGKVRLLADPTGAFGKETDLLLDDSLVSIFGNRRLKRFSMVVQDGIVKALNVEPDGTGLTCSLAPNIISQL
UniProt Q9H875: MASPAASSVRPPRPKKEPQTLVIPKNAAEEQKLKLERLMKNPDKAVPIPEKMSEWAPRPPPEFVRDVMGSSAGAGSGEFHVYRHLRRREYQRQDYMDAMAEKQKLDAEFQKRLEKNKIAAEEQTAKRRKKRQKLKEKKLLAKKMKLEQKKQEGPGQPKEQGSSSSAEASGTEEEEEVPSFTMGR

Key:
Experiment in all cases: log2 fold change, soluble protein after heating vs DMSO (PISA); higher = thermal stabilisation; K562 lysate, 10 uM; active = over 0.2 and 3.5 SD of the protein, either way, in both replicates (recomputed)
alvocidib = compound: CN1CC[C@H](c2c(O)cc(O)c3c(=O)cc(-c4ccccc4Cl)oc23)[C@H](O)C1 [alvocidib]
Method in brief: (§1)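 Dounce homogenisation of K562 pellets in PBS pH 7.4 with 1 mM MgCl2 produced a crude extract, used at 1 mg/mL protein. Exposure to 10 μM compound lasted 30 min, and aliquots were then heated for 3 min across 48°C-58°C, pooled and brought to 0.5% NP-40 at 4°C. The supernatant after 21,000xg for 90 min was quantified by TMTpro 16plex LC-MS/MS with channel sums equalised. Duplicate values are given as log-two fold change in thermal stability relative to solvent controls.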

Tubastatin A = compound: CN1CCc2c(c3ccccc3n2Cc2ccc(C(=O)NO)cc2)C1 [Tubastatin A]
Method in brief: as §1

[1] = compound: CNC(=O)C1=CC=CC=C1NC2=NC(=NC=C2Cl)NC3=C(C=C(C=C3)N4CCOCC4)OC
Method in brief: as §1

defactinib = compound: CNC(=O)c1ccc(Nc2ncc(C(F)(F)F)c(NCc3nccnc3N(C)S(C)(=O)=O)n2)cc1 [defactinib]
Method in brief: as §1

[2] = compound: CNc1nc(-c2ccc3c(N)n[nH]c3c2)cc(N2C[C@@H](C(=O)NC3CCCCC3)CC[C@H]2C)n1
Method in brief: as §1

encorafenib = compound: COC(=O)N[C@@H](C)CNc1nccc(-c2cn(C(C)C)nc2-c2cc(Cl)cc(NS(C)(=O)=O)c2F)n1 [encorafenib]
Method in brief: as §1

[3] = compound: COC(=O)[C@H](CCSC)NC(=O)C1=C(C=C(C=C1)NC[C@H](CS)N)C2=CC=CC=C2
Method in brief: as §1

alisertib = compound: COc1cc(Nc2ncc3c(n2)-c2ccc(Cl)cc2C(c2c(F)cccc2OC)=NC3)ccc1C(=O)O [alisertib]
Method in brief: as §1

[4] = compound: COc1cc2nc(-c3cc(F)ccc3O)nc(N[C@@H]3CNC[C@H]3C(C)(C)O)c2cc1OC
Method in brief: as §1

gefitinib = compound: COc1cc2ncnc(Nc3ccc(F)c(Cl)c3)c2cc1OCCCN1CCOCC1 [gefitinib]
Method in brief: as §1

lapatinib = compound: CS(=O)(=O)CCNCc1ccc(-c2ccc3ncnc(Nc4ccc(OCc5cccc(F)c5)c(Cl)c4)c3c2)o1 [lapatinib]
Method in brief: as §1

pictilisib = compound: CS(=O)(=O)N1CCN(Cc2cc3nc(-c4cccc5[nH]ncc45)nc(N4CCOCC4)c3s2)CC1 [pictilisib]
Method in brief: as §1

crizotinib = compound: C[C@@H](Oc1cc(-c2cnn(C3CCNCC3)c2)cnc1N)c1c(Cl)ccc(F)c1Cl [crizotinib]
Method in brief: as §1

[5] = compound: C[C@H](C1=CC=C(C=C1)C(=O)NC2=C3C=CNC3=NC=C2)N
Method in brief: as §1

duvelisib = compound: C[C@H](Nc1ncnc2nc[nH]c12)c1cc2cccc(Cl)c2c(=O)n1-c1ccccc1 [duvelisib]
Method in brief: as §1

gandotinib = compound: Cc1cc(Nc2cc(CN3CCOCC3)c3nc(C)c(Cc4ccc(Cl)cc4F)n3n2)n[nH]1 [gandotinib]
Method in brief: as §1

tozasertib = compound: Cc1cc(Nc2cc(N3CCN(C)CC3)nc(Sc3ccc(NC(=O)C4CC4)cc3)n2)n[nH]1 [tozasertib]
Method in brief: as §1

doramapimod = compound: Cc1ccc(-n2nc(C(C)(C)C)cc2NC(=O)Nc2ccc(OCCN3CCOCC3)c3ccccc23)cc1 [doramapimod]
Method in brief: as §1

bafetinib = compound: Cc1ccc(NC(=O)c2ccc(CN3CC[C@H](N(C)C)C3)c(C(F)(F)F)c2)cc1Nc1nccc(-c2cncnc2)n1 [bafetinib]
Method in brief: as §1

[6] = compound: Cc1cccc(CC(=O)N2CCc3c2ccc(-c2cn(C)c4ncnc(N)c24)c3F)n1
Method in brief: as §1

Measured: log2 fold change

PPIG (UniProt Q13427)
inactive: alvocidib -0.071 | Tubastatin A -0.003 | [1] -0.09 | defactinib -0.077 | [2] 0.042 | encorafenib 0.126 | [3] -0.004 | alisertib -0.035 | [4] 0.021 | gefitinib -0.069 | lapatinib 0.016 | pictilisib -0.047 | crizotinib -0.095 | [5] -0.111 | duvelisib 0.049 | gandotinib 0.01 | tozasertib 0.048 | doramapimod 0.022 | bafetinib 0.126 | [6] 0.157

PPIP5K1 (UniProt Q6PFW1)
inactive: alvocidib -0.001 | Tubastatin A -0.059 | [1] -0.021 | defactinib 0.031 | [2] -0.021 | encorafenib 0.029 | [3] 0.053 | alisertib 0.011 | [4] -0.04 | gefitinib 0.006 | lapatinib 0.003 | pictilisib -0.038 | crizotinib -0.01 | [5] 0.04 | duvelisib 0.091 | gandotinib -0.053 | tozasertib -0.013 | doramapimod 0.009 | bafetinib -0.08 | [6] 0.067

PROSER2 (UniProt Q86WR7)
inactive: alvocidib -0.064 | Tubastatin A -0.011 | [1] 0.004 | defactinib 0.089 | [2] 0.003 | encorafenib 0.016 | [3] -0.006 | alisertib 0.061 | [4] 0.008 | gefitinib -0.002 | lapatinib -0.149 | pictilisib -0.009 | crizotinib -0.019 | [5] 0.054 | duvelisib -0.025 | gandotinib 0.173 | tozasertib -0.064 | doramapimod 0.057 | bafetinib 0.01 | [6] -0.027

PPIL4 (UniProt Q8WUA2)
inactive: alvocidib 0.002 | Tubastatin A -0.018 | [1] 0.041 | defactinib -0.014 | [2] 0.018 | encorafenib 0.02 | [3] 0.089 | alisertib -0.009 | [4] 0.003 | gefitinib 0.015 | lapatinib -0.018 | pictilisib 0.026 | crizotinib -0.014 | [5] -0.032 | duvelisib -0.003 | gandotinib 0.008 | tozasertib 0.033 | doramapimod 0.038 | bafetinib -0.023 | [6] 0.036

PRKACA (UniProt P17612)
active: [4] 0.558
inactive: alvocidib -0.118 | Tubastatin A 0.008 | [1] 0.034 | defactinib 0.177 | [2] 0.082 | encorafenib -0.052 | [3] -0.059 | alisertib 0.027 | gefitinib -0.01 | lapatinib -0.008 | pictilisib -0.012 | crizotinib 0.022 | [5] -0.159 | duvelisib -0.059 | gandotinib 0.115 | tozasertib -0.12 | doramapimod -0.113 | bafetinib -0.073 | [6] 0.151

PRKAG1 (UniProt P54619)
inactive: alvocidib 0.047 | Tubastatin A -0.024 | [1] 0.182 | defactinib 0.116 | [2] -0.032 | encorafenib -0.016 | [3] -0.08 | alisertib 0 | [4] 0.099 | gefitinib -0.01 | lapatinib -0.03 | pictilisib 0.07 | crizotinib -0.043 | [5] -0.033 | duvelisib -0.003 | gandotinib 0.136 | tozasertib 0.109 | doramapimod 0.012 | bafetinib -0.071 | [6] -0.018

PRKAR2A (UniProt P13861)
active: gandotinib -0.232
inactive: alvocidib -0.028 | Tubastatin A -0.019 | [1] -0.176 | defactinib -0.085 | [2] -0.017 | encorafenib 0.037 | [3] 0.142 | alisertib 0.002 | [4] -0.062 | gefitinib 0.024 | lapatinib 0.036 | pictilisib -0.094 | crizotinib 0.013 | [5] 0.006 | duvelisib -0.025 | tozasertib 0.015 | doramapimod 0.036 | bafetinib -0.026 | [6] 0.031

PRIM2 (UniProt P49643)
inactive: alvocidib -0.008 | Tubastatin A -0.138 | [1] 0.033 | defactinib -0.01 | [2] 0.009 | encorafenib -0.002 | [3] 0.035 | alisertib -0.017 | [4] -0.009 | gefitinib 0.01 | lapatinib 0.045 | pictilisib -0.025 | crizotinib -0.017 | [5] 0.007 | duvelisib -0.002 | gandotinib -0.056 | tozasertib -0.04 | doramapimod 0.028 | bafetinib -0.1 | [6] 0.004

PROCR (UniProt Q9UNN8)
inactive: alvocidib -0.025 | Tubastatin A 0.035 | [1] 0.008 | defactinib 0.087 | [2] -0.138 | encorafenib -0.052 | [3] 0.027 | alisertib 0.061 | [4] -0.04 | gefitinib 0.223 | lapatinib 0.042 | pictilisib -0.065 | crizotinib -0.012 | [5] -0.024 | duvelisib -0.045 | gandotinib 0.067 | tozasertib 0.018 | doramapimod 0.07 | bafetinib 0.171 | [6] 0.123

PPM1A isoform 3 (UniProt P35813)
inactive: alvocidib -0.003 | Tubastatin A -0.06 | [1] -0.006 | defactinib -0.106 | [2] 0.026 | encorafenib -0.003 | [3] 0.065 | alisertib 0.007 | [4] 0.021 | gefitinib 0.053 | lapatinib 0.032 | pictilisib 0.065 | crizotinib -0.022 | [5] 0.012 | duvelisib -0.025 | gandotinib -0.086 | tozasertib 0.034 | doramapimod 0.023 | bafetinib -0.097 | [6] 0.002

PPM1F (UniProt P49593)
inactive: alvocidib 0.003 | Tubastatin A 0.058 | [1] 0 | defactinib 0.005 | [2] -0.067 | encorafenib 0.001 | [3] 0.054 | alisertib 0.021 | [4] -0.002 | gefitinib -0.014 | lapatinib 0.012 | pictilisib 0 | crizotinib -0.004 | [5] 0.032 | duvelisib 0.024 | gandotinib -0.01 | tozasertib -0.002 | doramapimod -0.004 | bafetinib -0.017 | [6] 0.039

2 records picked at random from those above, as already listed:
PRKAR2A (UniProt P13861)
active: gandotinib -0.232
inactive: alvocidib -0.028 | Tubastatin A -0.019 | [1] -0.176 | defactinib -0.085 | [2] -0.017 | encorafenib 0.037 | [3] 0.142 | alisertib 0.002 | [4] -0.062 | gefitinib 0.024 | lapatinib 0.036 | pictilisib -0.094 | crizotinib 0.013 | [5] 0.006 | duvelisib -0.025 | tozasertib 0.015 | doramapimod 0.036 | bafetinib -0.026 | [6] 0.031

PROCR (UniProt Q9UNN8)
inactive: alvocidib -0.025 | Tubastatin A 0.035 | [1] 0.008 | defactinib 0.087 | [2] -0.138 | encorafenib -0.052 | [3] 0.027 | alisertib 0.061 | [4] -0.04 | gefitinib 0.223 | lapatinib 0.042 | pictilisib -0.065 | crizotinib -0.012 | [5] -0.024 | duvelisib -0.045 | gandotinib 0.067 | tozasertib 0.018 | doramapimod 0.07 | bafetinib 0.171 | [6] 0.123

Next results:

PPP6R3 isoform 5 (UniProt Q5H9R7)
inactive: alvocidib -0.028 | Tubastatin A -0.004 | [1] -0.013 | defactinib 0.003 | [2] -0.003 | encorafenib 0.015 | [3] -0.068 | alisertib -0.013 | [4] 0.003 | gefitinib 0.016 | lapatinib 0 | pictilisib -0.01 | crizotinib -0.012 | [5] -0.037 | duvelisib 0.028 | gandotinib 0.037 | tozasertib -0.002 | doramapimod 0.025 | bafetinib -0.027 | [6] 0.02

PRDX5 (UniProt P30044)
inactive: alvocidib 0.032 | Tubastatin A 0.036 | [1] -0.007 | defactinib 0.01 | [2] 0.013 | encorafenib -0.009 | [3] -0.019 | alisertib 0 | [4] 0.002 | gefitinib -0.016 | lapatinib -0.023 | pictilisib 0.015 | crizotinib 0.011 | [5] 0.048 | duvelisib 0.009 | gandotinib 0.002 | tozasertib -0.029 | doramapimod 0.017 | bafetinib 0.045 | [6] -0.016

PPM1E (UniProt Q8WY54)
inactive: alvocidib -0.027 | Tubastatin A -0.011 | [1] 0.008 | defactinib 0.019 | [2] -0.119 | encorafenib 0.006 | [3] 0.014 | alisertib 0.007 | [4] -0.036 | gefitinib -0.077 | lapatinib 0.002 | pictilisib -0.065 | crizotinib 0.043 | [5] -0.057 | duvelisib 0.023 | gandotinib 0.05 | tozasertib -0.018 | doramapimod 0.053 | bafetinib 0.023 | [6] 0.052

PRKRIP1 (UniProt Q9H875)
inactive: alvocidib -0.018 | Tubastatin A 0.072 | [1] 0.011 | defactinib 0.012 | [2] 0.046 | encorafenib -0.003 | [3] -0.023 | alisertib -0.021 | [4] 0.01 | gefitinib 0.006 | lapatinib -0.002 | pictilisib -0.003 | crizotinib 0.083 | [5] -0.006 | duvelisib 0.007 | gandotinib 0.008 | tozasertib 0.11 | doramapimod -0.008 | bafetinib 0.003 | [6] 0.017
